Test results reported in US20110246078A1, “MITOCHONDRIA KATP ION CHANNEL AS A DRUG TARGET FOR PREVENTING LIVER DISEASES AND METHODS TO SCREEN MITOCHONDRIA KATP MODULATORS” (priority 2010, published 2011).

System: pinacidil induced DMR signal in HepG2C3A cells
Assay: Label-free RWG biosensor DMR assay, modulation of the pinacidil induced DMR signal
Format: cell-based, human
Settings: pre-incubation with compound, pinacidil 40 μM
Procedure: Transfection of siRNAs was performed using N-TER Nanoparticle siRNA Transfection System (Cat#N2913) from Sigma-Aldrich Inc. following the manufacturer's instructions. Briefly, 5000 cells were plated in each well of Epic 384-well plates. Cells were transfected with 50 nM siRNA the next day and incubated in siRNA containing medium for 24 hrs before replaced with fresh cell culture medium. Epic cell assay was performed 48 hours after transfection.
Epic® wavelength interrogation system (Corning Inc., Corning, N.Y.) was used for whole cell sensing. This system consists of a temperature-control unit, an optical detection unit, and an on-board liquid handling unit with robotics. The detection unit is centered on integrated fiber optics, and enables kinetic measures of cellular responses with a time interval of ˜15sec. […]
For biosensor cellular assays, compound solutions were made by diluting the stored concentrated solutions with the HBSS (1× Hanks balanced salt solution, plus 20 mM Hepes, pH 7.1), and transferred into a 384well polypropylene compound storage plate to prepare a compound source plate. […] Both the cell assay plate and the compound source plate(s) were then incubated in the hotel of the reader system. After incubation the baseline wavelengths of all biosensors in the cell assay microplate were recorded and normalized to zero. […]

Cc1cnc(C(=O)NCCc2ccc(S(=O)(=O)NC(=O)NC3CCCCC3)cc2)cn1 [glipizide]
effect on the pinacidil induced DMR signal: dose-dependently inhibited
